In PubChem BioAssay AID540276 (National Center for Advancing Translational Sciences (NCATS), 2011):
Several values for one entry are separate records, joined by “and”; a condition that tells them apart may be missing. Equal values may be shown once. The campaign covered roughly 300,000 compounds. About 5,400 (1.8%) were called active. Inconclusive results, whose numbers are uncertain, are shown with a selection of clear calls. Calls come from the whole dose curve; tested in HEK293 cells. A potency beside an inconclusive call is a rough fit, not a confirmed value.

Test: qHTS for inhibitors of binding or entry into cells for Marburg Virus
Conditions: Marburg virus pseudotyped entry inhibition, cell reporter; series mostly up to 37.8 µM
Potency is the fitted concentration of half-maximal effect.

Row | Compound | Potency
1 | O=C(CSc1nnc(CNC(=O)c2c(F)cccc2F)o1)NCc1ccccc1Cl | inconclusive: 31.6 µM [activator, single point]
2 | O=C(Nc1ccccc1)c1nc[nH]c1C(=O)O | inconclusive: 35.5 µM [inhibitor, single point]
3 | Cc1cc(C)c2c(CC(=O)N(Cc3ccc(Cl)cc3)Cc3ccco3)coc2c1 | inconclusive: 35.5 µM [inhibitor, single point]
4 | Cc1cccc(-n2cnc(C(=O)NNC(=S)Nc3ccccc3)c2)n1 | inconclusive: 35.5 µM [inhibitor, single point]
5 | O=C(NCCS(=O)(=O)NCc1ccc2c(c1)OCO2)c1ccccc1 | inconclusive: 0.316 µM [inhibitor, partial curve, poor fit]
6 | O=C(CCn1c(=O)c2ccccc2n(Cc2cccc(Cl)c2)c1=O)NCCc1ccccc1 | inconclusive: 3.16 µM [inhibitor, single point]
7 | COc1ccc(C(=O)Nc2ccc3c(c2)nc2n3CCSC2)cc1 | inconclusive: 1.83 µM [activator, partial curve]
8 | Cc1ccc(C2(C)NC(=O)N(CC(=O)N3CCN(S(=O)(=O)c4cccc(F)c4)CC3)C2=O)cc1 (configuration not stated) | inactive
9 | CN(c1ccccc1C(=O)O)S(=O)(=O)c1ccc2[nH]c(=O)oc2c1 | inconclusive: 0.794 µM [inhibitor, partial curve, poor fit]
10 | CC(C)CCn1c(Sc2nc3ccccc3s2)nc2c1c(=O)[nH]c(=O)n2C | inconclusive: 32.6 µM [inhibitor, single point]
11 | COc1cc2c(cc1OC)C(C(=O)N1CCCC1)C(c1ccccc1F)N(C)C2=O (configuration not stated) | inconclusive: 6.51 µM [inhibitor, single point]
12 | N#CCC(=O)N/N=C\c1cccc(OC/C=C/c2ccccc2)c1 | inconclusive: 6.31 µM [inhibitor, partial curve, poor fit]
13 | CCCCN(C(=O)c1ccc(-n2nc(C)cc2C)cc1)c1c(N)n(CCC)c(=O)[nH]c1=O | inactive
14 | COc1cc(NC(=O)c2cc3nc(-c4ccccc4)cc(-c4ccccc4)n3n2)cc(OC)c1OC | inconclusive: 18.3 µM [inhibitor, single point]
15 | COc1ccc(C(=O)NCCc2c[nH]c3ccccc23)cc1S(=O)(=O)N1CCCCC1C (configuration not stated) | inconclusive: 17.8 µM [inhibitor, partial curve, poor fit]
16 | Cc1ccc(O)c(C=Nc2cc(C)ccc2O)c1 | inconclusive: 6.31 µM [activator, single point]
17 | CCc1nn(CC(=O)Nc2cccc(C(C)=O)c2)c(=O)c2cc3sccc3n12 | inactive
18 | CC(C)(C)c1ccc(C(=O)CS(=O)(=O)c2ccccc2)cc1 | inconclusive: 35.5 µM [inhibitor, single point]
19 | CSCCC(NC(=O)c1ccco1)C(=O)N1CCC(C(N)=O)CC1 (configuration not stated) | inactive
20 | COc1ccc(NC(=O)CN(C2CCCCC2)S(C)(=O)=O)cc1Cl | inactive
21 | Cc1ccc(Cl)cc1NC(=O)C1CCCN(c2cnccn2)C1 (configuration not stated) | inconclusive: 3.16 µM [activator, partial curve, poor fit]

3 entries from above in a different format:
Row	Compound	Potency
19	CSCCC(NC(=O)c1ccco1)C(=O)N1CCC(C(N)=O)CC1 (configuration not stated)	inactive
20	COc1ccc(NC(=O)CN(C2CCCCC2)S(C)(=O)=O)cc1Cl	inactive
21	Cc1ccc(Cl)cc1NC(=O)C1CCCN(c2cnccn2)C1 (configuration not stated)	inconclusive: 3.16 µM [activator, partial curve, poor fit]

Remaining list, next part.

Row | Compound | Potency
22 | COc1ccc(C(CNC(=O)c2ccc(-c3ccccc3)cc2)N(C)C)cc1OC (configuration not stated) | inconclusive: 12.6 µM [inhibitor, partial curve, poor fit]
23 | COc1ccc(CN(C)CC(=O)NC2CCCc3ccccc32)cc1OC (configuration not stated) | inconclusive: 35.5 µM [inhibitor, single point]
24 | Cc1cc(C)c2c(CC(=O)Nc3ccccc3C(F)(F)F)coc2c1 | inactive
25 | C=CCn1c(SCc2ccc3nonc3c2)nnc1-c1cccs1 | inconclusive: 10 µM [inhibitor, partial curve, poor fit]
26 | Nc1n[nH]c2c1C1(CCCCC1)Cc1ccccc1-2 | inactive
27 | C(=N\Nc1nc2ccccc2[nH]1)/c1c[nH]c2ccccc12 | inconclusive: 9.2 µM [inhibitor, single point]
28 | CC1CCCC(C)N1C(=O)CN1CCN(c2nc(-c3ccc(F)cc3)cs2)CC1 (configuration not stated) | inconclusive: 16.4 µM [inhibitor, partial curve]
29 | CCc1ccccc1NC(=O)Cn1nc(C(F)(F)F)c2c1CCC2 | inconclusive: 22.4 µM [inhibitor, single point]
30 | O=C(Nc1cccnc1)c1ccc(Cl)c(S(=O)(=O)N2CCCCCC2)c1 | inconclusive: 23.1 µM [inhibitor, partial curve]
31 | Cc1nc(N2CCN(C(c3ccccc3)c3ccccc3)CC2)nc2c1C(=O)CCC2 | inactive
32 | CCOC(=O)N1CCN(Cc2ccc(O)c3ncccc23)CC1 | inconclusive: 12.6 µM [inhibitor, partial curve, poor fit]
33 | Cc1c(C(=O)N(C)Cc2ccccc2)oc2c(Cl)cccc12 | inactive
34 | CC(=O)N(c1nnc(-c2cccc(C)c2)s1)C1CCCC1 | inconclusive: 5.62 µM [activator, single point]
35 | COc1ccnc(Oc2ccc(F)cc2)c1C(=O)N/C=N/OCc1ccc(Cl)cc1Cl | active: 13 µM
36 | Cc1cc(C)nc(CCNC(=O)c2cc(COc3c(C)cccc3C)on2)n1 | inconclusive: 1.26 µM [activator, full curve, poor fit]
37 | Cc1ccc(C(=O)N(CCC2=CCCCC2)c2c(N)n(Cc3ccccc3)c(=O)[nH]c2=O)o1 | inconclusive: 6.31 µM [inhibitor, single point]
38 | CSc1ccc(CCNC(=O)c2ccc3c(Cl)c4c(nc3c2)CCCC4)cc1 | inactive
39 | COc1ccccc1N1CCN(C(=O)C2CCC(Cn3c(=S)[nH]c4ccccc4c3=O)CC2)CC1 (configuration not stated) | inactive and inconclusive: 2.59 µM [activator, partial curve, poor fit]
40 | CCCCC(=O)OCC(=O)Nc1ccc(C)c(F)c1 | inactive
41 | CCOC(=O)N1CCN(C(=O)c2ccc(Cn3c(=S)[nH]c4ccc(Br)cc4c3=O)cc2)CC1 | inconclusive: 1.12 µM [inhibitor, full curve, poor fit]
42 | N=c1c2c(ncn1CCN1CCOCC1)Oc1cc(O)ccc1C2c1ccccc1 (configuration not stated) | inconclusive: 10 µM [inhibitor, partial curve, poor fit]
